Data reported in patent publication EP4663204A1, “COMPOUNDS USEFUL FOR THE MODULATION OF THE ACTIVITY OF STING” (Sulis Therapeutics ApS, priority 2024, dated 2025).
The structures given here were assigned with low confidence; some may be wrong.

Sequences of proteins named here, by UniProt entry; tags and fusion partners are left off.
UniProt Q86WV6, whole entry: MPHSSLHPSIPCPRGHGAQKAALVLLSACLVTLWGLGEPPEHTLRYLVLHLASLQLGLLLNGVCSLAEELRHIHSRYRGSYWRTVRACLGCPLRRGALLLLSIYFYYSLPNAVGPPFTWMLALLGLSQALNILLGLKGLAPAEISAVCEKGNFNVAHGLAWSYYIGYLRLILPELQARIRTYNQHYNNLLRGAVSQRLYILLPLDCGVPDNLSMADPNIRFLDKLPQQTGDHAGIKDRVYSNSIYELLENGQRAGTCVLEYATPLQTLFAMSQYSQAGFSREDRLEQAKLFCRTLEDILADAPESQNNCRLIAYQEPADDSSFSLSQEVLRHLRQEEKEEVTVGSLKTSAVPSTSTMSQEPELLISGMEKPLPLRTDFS

Target: STING (Homo sapiens, UniProt Q86WV6)
Assay: Inhibition of STING-agonist-induced IFN-β release in HFF-1 cells (ELISA)
Conditions: read-out: Inhibition of STING-agonist-induced IFN-β release in HFF-1 cells, EC50; 24h pre-incubation; 0.3 µM diABZI; supernatants after 6h; * incomplete inhibition
Procedure: To evaluate cellular effects of test compounds, we assessed inhibition of STING-agonist-induced IFN-β release in human foreskin fibroblasts HFF-1 cells (ATCC, SCRC-1041). Cells were seeded at a density of 10.000 cells/well in 96-well Nunclon Delta surface treated culture plate in DMEM growth medium (supplemented with 10% FBS, 1% Pen-strep). Cells were incubated over-night at 37°C 5% CO2 to allow adhesion. Next morning growth medium was renewed and a 7x concentration 3-step dilution series of test compounds (2,1% DMSO) diluted in growth medium were added to the appropriate well. Final DMSO concentration was 0.3%. Cells were further incubated for 24h followed by addition of 8x concentration of GSK STING agonist (CAS number: 2138299-34-8; diABZi c3*; diABZI), final concentration was 0.3 µM. […]
Cell supernatants were analysed for IFN-β release using DuoSet human IFN-β ELISA (R&D systems, DY-814) following manufactures protocol except using 96-well, half-volume plates from Corning and subsequently use half volume for all steps throughout the protocol. […] Signals were measured using BioTek Synergy H1 plate reader at 450nm and 570nm (reference).
Raw data values were quantified based on the standard curve using blank subtracted Δ450nm-570nm values generated using the Gen5 software connected to the plate reader. […]

With CCn1nc(C)cc1C(=O)Nc1nc2cc(C(N)=O)ccc2n1CCC(CCn1c(NC(=O)c2cc(C)nn2CC)nc2cc(C(N)=O)ccc21)OCC(=O)NCCOCCOCCOCCOCCC(=O)NCCOCCOCCOCCOCC(=O)N[C@H]1C[C@@H](C(=O)N[C@@H]2CCCc3ccccc32)N(C(=O)[C@@H](NC(=O)[C@H](C)NC)C2CCCCC2)C1 the EC50 was 1000 to 5000 nM.
